Results from one PubChem assay

Data taken from PubChem BioAssay AID1159506, deposited by NCATS (2015).

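Genome-wide siRNA knockdown in TC32 Ewing sarcoma cells, comparing luciferase light from an NR0B1-promoter reporter with a CMV-promoter reporter 48 hours after transfection. Each siRNA was applied at 20 nM. A z-score of the log NR0B1-over-CMV signal, less the median of siRNAs with the same seed; more negative means a stronger specific loss of the NR0B1 reporter.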

This is part of the screen; most of the strongest results are not listed here. Sequences are the guide (antisense) strand, without overhang.

Sequence,target gene,seed-corrected z-score
UCAAUUCUAUUCGUAAUUG,WEE1,0.4558
UUUGCGCAUGAUGAAGUCG,WI2-2373I1.2,-1.229
UCCUCGUCAUCUGUAUCGC,MDC1,-0.7151
UUUGCAUUAAAGGUGAAUC,ADO,-0.5333
UACGUUUCCAGUGCGGUCC,TCAF1,1.491
AAAGGGAUGGUUGAUCUGU,SGK494,-0.8909
UUAGCUUCCUCAAUCUCUG,PKD2,0.8396
UAGAGGACAUGAGAUCUGC,FPGS,0.5817
UCCGAUAUCUGAUUCUUGC,SLIT3,-0.4186
UGUUGAAUUAACUUUGCUG,SRPRB,0.1931
UAAAGAUAAAUCUUUGGUU,LOC729291,0.1611
UCCCGAAACAGGCUGAUGC,KIAA1671,0.3558
UUGCUCUUUAAGAUGGUCC,TCP11,-0.7683
UUACUGUAGAAUUUAUCUU,C16orf87,1.573
AUCUUUCACAUCUGUAGCC,PRDM14,1.142
UGAGCUAGCACGCUGAACU,IGSF9,-0.2207
ACUCAUUUAACUUCAUUGC,GSTO1,0.1802
UACGGUGUAAUUAGAGCAG,CILP,0.4048
UUUGGUUGAAUAAAGCAGU,OR5P2,0.01341
AGAGUUAGCAGAUCUAGGU,C7orf33,0.7049
AUCAUAUCAAGAAUGCUGG,KRTAP4-2,0.007264
UUUGUUCAUUAAACCUUGC,GTF2E1,-0.4676
UGUAAUCUAAGAGUUGACC,ZFP1,-0.7527
UAAUCUCACAUAAAAACAC,FAM24B,0.141
AAAAAUCAAACGGACAGCU,CCR1,-0.8092
AACUUGUUGACGAAGUCCG,TSSK6,-1.23
UAGAGAAAGAACACCUCGG,CHST2,-0.4164
UGGAGUACAAAGUUCACAG,NOX5,0.2247
UAUUGGUUACAAUCAAGUC,AMT,1.148
UCCACAAUAAGAUCUUCUG,AAGAB,-0.1487
UACGGGCGCAUAGAAGACC,FAM101A,-0.1761
UCCGUUUUUACCUCAUUGG,KMT2C,-0.08303
UUCCUUAACAGCAUGCACG,ZNF652,0.02536
UAGUGGAACGAGUAAAGGC,ZNF20,-0.09295
UGGUGUACCACUUGCGCUG,SPRYD4,0.3288
UUCUUUUCAAUUACCUAUG,SMLR1,0.2177
UAUUUAGUUCUCCAAGUAC,FAM46D,-1.273
UAUUGAAUAGCCUAGAUAG,RHOT1,0.4583
UUGGUGUCUGGGACAGUGA,EPO,-0.4621
ACUGUCAAAAUUACCGUGC,CD302,-0.416
UCCUUGGGCAUAAUGGUCA,HIST2H3A,-1.025
UAACCAACAUCCUAUGUGG,SLCO1A2,0.3393
UUCGGUUACGGCUUCGGUC,ZBED3,0.378
UUAGAGAAAAGCGUGCGCC,ACTR1A,-0.4459
UCCGCUUUUUGAUUUCAGC,RAB1B,-0.1172
UAUAGUCUGAGACAUGAGG,MAP3K2,0.102
UAUAUGUGCUUUGAGAACC,DAW1,1.274
UUAUUGAUCUCUGGAGUUC,IL7R,0.08378
UUUCUUACUGUCCAGUUUC,HDAC4,1.011
AUAUUUGACACUGCUAGGG,OR13C4,-1.078
UAUGUGAGUAAUGCGGACC,LOC728470,0.4825

The first 3 entries again:

Sequence,target gene,seed-corrected z-score
UCAAUUCUAUUCGUAAUUG,WEE1,0.4558
UUUGCGCAUGAUGAAGUCG,WI2-2373I1.2,-1.229
UCCUCGUCAUCUGUAUCGC,MDC1,-0.7151